One substance from patent US9457057B2, “Methods for the prevention and treatment of burn injuries and secondary complications” (The General Hospital Corporation, priority 2009, dated 2016) can be followed below.

Data set [1] concerns ATP synthesis rate (Pi→γATP) in hindlimb skeletal muscle. Put plainly: In vivo 31P-NMR saturation transfer, ATP synthesis rate (Pi→γATP), mouse burn model (Examples 8 and 10). As to the method:
(§1) Materials and Methods. Male 6-week-old CD1 mice weighing 20-25 g were anesthetized by intraperitoneal (i.p.) injection of 40 mg/kg pentobarbital sodium. The left hind limb of all mice in all groups was shaved. Each burned mouse was subjected to a nonlethal scald injury of 3-5% total body surface area (TBSA) by immersing its left hind limb in 90° C. water for 3 sec.
(§2) NMR spectroscopy is described in detail in Padfield, et al., Proc Natl Acad Sci USA 102: 5368-5373 (2005). Briefly, mice were randomized into burn, burn+SS-31 peptide, control, and control+peptide groups. The SS-31 peptide (3 mg/kg) was injected intraperitoneally at 30 min prior to burn and a second injection immediately after the burn. NMR experiments were performed in a horizontal bore magnet (proton frequency 400 MHz, 21 cm diameter, Magnex Scientific) using a Bruker Avance console. A 90° pulse was optimized for detection of phosphorus spectra (repetition time 2 s, 400 averages, 4K data points). Saturation 90°-selective pulse trains (duration 36.534 ms, bandwidth 75 Hz) followed by crushing gradients were used to saturate the γ-ATP peak. The same saturation pulse train was also applied downfield of the inorganic phosphate (Pi) resonance, symmetrically to the γ-ATP resonance. T1 relaxation times of Pi and phosphocreatine (PCr) were measured using an inversion recovery pulse sequence in the presence of γ-ATP saturation. An adiabatic pulse (400 scans, sweep with 10 KHz, 4K data) was used to invert Pi and PCr, with an inversion time between 152 ms and 7651 ms.
Male 6-week-old CD1 mice (20-25 g) were anesthetized by intraperitoneal injection of 40 mg/kg pentobarbital sodium and the left hind limb of all mice was shaved. Burn injury was inflicted by a nonlethal scald injury of 3-5% total body surface area by immersing the left hind limb in 90° C. water for 3 sec. Mice were randomized into burn (B), burn+SS-31 (B+P), control (C) and control+SS-31 (C+P) groups. SS-31 (3 mg/kg) was injected intaperitoneally at 30 min before burn and immediately after burn. A separate group of burned animals received only one dose of the SS-31 peptide immediately after burn.
Values are means±SE; ΔM/M0 is the fractional change in Pi magnetization as a result of saturation transfer; T1obs is the observed spin lattice relaxation time of Pi during γATP saturation in seconds; ATP synthesis is calculated as [Pi]×k; [Pi] is the concentration of Pi extrapolated from the baseline NMR spectrum, comparing Pi and γATP peaks and ATP concentration measured with bioluminescence assay; k is calculated as (1/T1obs)×(ΔM/M0); P-values (unpaired Student's t-test) are for comparisons between experimental and control groups; * indicates only one dose of SS-31 peptide (3 mg/kg) was injected to animals immediately after burn.

For data set [2], the system named is ATP synthesis rate (reaction PCr → γATP) in hindlimb skeletal muscle. Put plainly: In vivo 31P-NMR saturation transfer, ATP synthesis rate (reaction PCr→γATP), mouse burn model (Example 8). As to the method:
as §1, §2

Where [3] appears, read: Burn + Peptide (n = 8), 3 mg/kg IP 30 min before burn and immediately after burn, 6 hours after burn.
Setting [4] is: Burn + Peptide* (n = 8), only one dose 3 mg/kg immediately after burn.
Setting [5] is: Controls + Peptide (n = 5), unburned CD1 mice, 3 mg/kg IP two injections.
The mark [6] stands for this setting: Burn + Peptide (n = 8), 3 mg/kg IP 30 min prior to burn and immediately after the burn.

Where “and” joins values, the source holds several entries; their conditions need not be identical. Identical values can stand only once.

Turning to “D-Arg-2′,6′-dimethyltyrosine-Lys-Phe-NH2 [SS-31]”, the T1obs in data set [1] (setting [3]) is recorded as 1.33 ± 0.27 s; in data set [1] (setting [4]), 1.33 ± 0.27 s; in data set [1] (setting [5]), 1.16 ± 0.14 s; in data set [2] (setting [6]) it was 1.33 ± 0.27 s; in data set [2] (setting [5]) it was 1.16 ± 0.14 s. Further, the “ΔM/M0 (fractional change in Pi magnetization)” value in data set [1] (setting [3]) was 0.31 ± 0.06; in data set [1] (setting [4]), 0.39 ± 0.07; in data set [1] (Controls + Peptide (n = 5), unburned CD1 mice, 3 mg/kg IP two injections, 3 mg/kg), 0.185 ± 0.02 and 0.15 ± 0.02. Moreover, the Kf came to 0.24 ± 0.05 s⁻¹ in data set [2] (setting [6]) and 0.14 ± 0.02 s⁻¹ in data set [2] (setting [5]). Further, the ΔM/M0 in data set [2] (setting [6]) is 0.31 ± 0.06; in data set [2] (setting [5]), 0.15 ± 0.02.
